Laboratory results taken from the supplement of paper PMC12067093, “Discovery and optimisation of a covalent ligand for TRIM25 and its application to targeted protein ubiquitination” (Chemical Science, 2025).
This is one part of the list.

Chains of the proteins cited; added tags and fusions are not shown. Lines headed by an entry give the natural chain unless they say otherwise; changes in a name come on top.
UniProt Q8NE71: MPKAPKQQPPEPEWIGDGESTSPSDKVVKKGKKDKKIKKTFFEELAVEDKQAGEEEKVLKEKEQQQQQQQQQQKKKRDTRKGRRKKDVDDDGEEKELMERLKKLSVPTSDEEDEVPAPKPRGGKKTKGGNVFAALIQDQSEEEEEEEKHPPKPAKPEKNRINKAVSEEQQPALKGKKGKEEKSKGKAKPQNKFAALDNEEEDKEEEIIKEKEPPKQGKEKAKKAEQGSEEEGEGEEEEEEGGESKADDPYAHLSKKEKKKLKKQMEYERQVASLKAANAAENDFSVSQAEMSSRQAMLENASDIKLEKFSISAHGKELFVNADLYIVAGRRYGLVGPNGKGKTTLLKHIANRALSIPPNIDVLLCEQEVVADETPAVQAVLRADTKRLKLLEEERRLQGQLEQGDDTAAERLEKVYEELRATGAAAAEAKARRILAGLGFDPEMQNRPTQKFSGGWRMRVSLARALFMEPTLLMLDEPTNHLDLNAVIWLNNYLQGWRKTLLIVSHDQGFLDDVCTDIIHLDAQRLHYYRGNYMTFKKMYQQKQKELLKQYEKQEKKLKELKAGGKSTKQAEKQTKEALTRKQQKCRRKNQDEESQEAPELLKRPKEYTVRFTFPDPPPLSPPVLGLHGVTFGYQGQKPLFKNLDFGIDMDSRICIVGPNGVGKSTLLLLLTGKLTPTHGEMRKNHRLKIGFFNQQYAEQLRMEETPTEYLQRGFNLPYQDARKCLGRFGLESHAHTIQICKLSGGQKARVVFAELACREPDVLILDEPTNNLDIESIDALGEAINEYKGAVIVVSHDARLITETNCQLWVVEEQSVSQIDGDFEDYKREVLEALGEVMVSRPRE
UniProt O95870: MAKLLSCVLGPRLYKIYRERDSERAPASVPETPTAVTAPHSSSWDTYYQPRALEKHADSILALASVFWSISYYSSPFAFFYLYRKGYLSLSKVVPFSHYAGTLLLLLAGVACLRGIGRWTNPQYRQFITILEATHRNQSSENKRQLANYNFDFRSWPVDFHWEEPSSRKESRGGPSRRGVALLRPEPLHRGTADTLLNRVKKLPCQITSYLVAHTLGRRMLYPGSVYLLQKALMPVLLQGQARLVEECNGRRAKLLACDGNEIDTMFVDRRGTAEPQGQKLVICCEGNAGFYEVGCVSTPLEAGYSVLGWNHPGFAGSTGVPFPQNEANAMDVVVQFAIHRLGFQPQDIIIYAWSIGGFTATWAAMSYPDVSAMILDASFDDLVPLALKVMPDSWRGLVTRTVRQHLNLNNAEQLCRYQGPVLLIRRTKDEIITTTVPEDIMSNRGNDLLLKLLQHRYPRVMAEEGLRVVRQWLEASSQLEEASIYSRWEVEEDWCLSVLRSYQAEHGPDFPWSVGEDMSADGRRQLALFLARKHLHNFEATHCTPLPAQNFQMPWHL
UniProt P49588, whole entry, looked up: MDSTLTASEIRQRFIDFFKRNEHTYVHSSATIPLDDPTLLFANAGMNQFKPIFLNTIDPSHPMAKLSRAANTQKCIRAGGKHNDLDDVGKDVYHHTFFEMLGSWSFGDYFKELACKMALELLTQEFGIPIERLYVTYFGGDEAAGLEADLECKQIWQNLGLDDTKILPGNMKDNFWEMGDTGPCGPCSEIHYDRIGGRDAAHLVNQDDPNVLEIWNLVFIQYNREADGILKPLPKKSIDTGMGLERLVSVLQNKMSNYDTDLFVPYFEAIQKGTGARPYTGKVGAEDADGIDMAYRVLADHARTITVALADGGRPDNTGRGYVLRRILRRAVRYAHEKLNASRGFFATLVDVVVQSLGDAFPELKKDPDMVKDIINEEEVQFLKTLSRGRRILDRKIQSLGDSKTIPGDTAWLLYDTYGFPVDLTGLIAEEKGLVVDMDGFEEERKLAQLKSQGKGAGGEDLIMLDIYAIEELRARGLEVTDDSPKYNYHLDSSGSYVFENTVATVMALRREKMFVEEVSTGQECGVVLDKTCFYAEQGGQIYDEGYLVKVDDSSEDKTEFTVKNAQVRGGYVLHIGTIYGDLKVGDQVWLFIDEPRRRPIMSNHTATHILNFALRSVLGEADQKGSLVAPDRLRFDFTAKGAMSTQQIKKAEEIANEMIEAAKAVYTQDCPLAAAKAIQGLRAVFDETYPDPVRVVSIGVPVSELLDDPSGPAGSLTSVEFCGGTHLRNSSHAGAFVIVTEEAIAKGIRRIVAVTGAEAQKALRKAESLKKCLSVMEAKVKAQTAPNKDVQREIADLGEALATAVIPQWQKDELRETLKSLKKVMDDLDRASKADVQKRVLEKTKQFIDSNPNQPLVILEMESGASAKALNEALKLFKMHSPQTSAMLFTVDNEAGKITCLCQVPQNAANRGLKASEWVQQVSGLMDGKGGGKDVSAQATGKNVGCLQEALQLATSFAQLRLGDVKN
UniProt Q9UKV3: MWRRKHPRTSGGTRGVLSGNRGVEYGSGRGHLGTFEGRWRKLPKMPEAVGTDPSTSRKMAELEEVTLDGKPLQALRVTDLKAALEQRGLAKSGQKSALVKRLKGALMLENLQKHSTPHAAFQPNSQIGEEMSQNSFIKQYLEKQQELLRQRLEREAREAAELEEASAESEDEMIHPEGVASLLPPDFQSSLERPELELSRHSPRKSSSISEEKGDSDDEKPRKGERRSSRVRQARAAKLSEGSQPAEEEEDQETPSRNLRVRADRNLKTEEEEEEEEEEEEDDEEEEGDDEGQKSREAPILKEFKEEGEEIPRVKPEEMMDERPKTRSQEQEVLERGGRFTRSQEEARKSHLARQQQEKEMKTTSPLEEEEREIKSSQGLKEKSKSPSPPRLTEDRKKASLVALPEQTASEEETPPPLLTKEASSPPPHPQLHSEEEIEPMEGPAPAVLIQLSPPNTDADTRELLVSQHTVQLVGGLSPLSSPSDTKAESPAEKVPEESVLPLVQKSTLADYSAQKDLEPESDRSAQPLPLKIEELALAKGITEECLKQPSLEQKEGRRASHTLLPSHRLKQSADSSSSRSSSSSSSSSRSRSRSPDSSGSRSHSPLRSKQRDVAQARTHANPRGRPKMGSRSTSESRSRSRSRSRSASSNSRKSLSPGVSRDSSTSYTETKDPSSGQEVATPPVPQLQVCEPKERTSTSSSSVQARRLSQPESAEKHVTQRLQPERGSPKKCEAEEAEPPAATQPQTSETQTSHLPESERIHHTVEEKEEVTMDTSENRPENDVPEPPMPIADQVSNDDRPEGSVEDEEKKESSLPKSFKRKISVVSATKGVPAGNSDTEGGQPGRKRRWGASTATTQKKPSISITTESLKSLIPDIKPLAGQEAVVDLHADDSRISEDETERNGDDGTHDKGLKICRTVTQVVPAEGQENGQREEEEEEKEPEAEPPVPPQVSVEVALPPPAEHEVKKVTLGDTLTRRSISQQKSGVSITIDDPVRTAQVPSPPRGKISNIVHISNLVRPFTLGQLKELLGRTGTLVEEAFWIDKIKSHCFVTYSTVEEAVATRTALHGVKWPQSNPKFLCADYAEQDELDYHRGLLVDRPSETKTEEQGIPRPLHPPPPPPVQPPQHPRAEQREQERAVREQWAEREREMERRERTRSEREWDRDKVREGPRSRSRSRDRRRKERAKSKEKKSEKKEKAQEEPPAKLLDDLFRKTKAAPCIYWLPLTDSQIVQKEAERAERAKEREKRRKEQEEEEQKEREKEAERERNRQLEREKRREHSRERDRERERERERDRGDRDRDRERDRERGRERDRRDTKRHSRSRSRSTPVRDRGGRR
UniProt Q8WXI4: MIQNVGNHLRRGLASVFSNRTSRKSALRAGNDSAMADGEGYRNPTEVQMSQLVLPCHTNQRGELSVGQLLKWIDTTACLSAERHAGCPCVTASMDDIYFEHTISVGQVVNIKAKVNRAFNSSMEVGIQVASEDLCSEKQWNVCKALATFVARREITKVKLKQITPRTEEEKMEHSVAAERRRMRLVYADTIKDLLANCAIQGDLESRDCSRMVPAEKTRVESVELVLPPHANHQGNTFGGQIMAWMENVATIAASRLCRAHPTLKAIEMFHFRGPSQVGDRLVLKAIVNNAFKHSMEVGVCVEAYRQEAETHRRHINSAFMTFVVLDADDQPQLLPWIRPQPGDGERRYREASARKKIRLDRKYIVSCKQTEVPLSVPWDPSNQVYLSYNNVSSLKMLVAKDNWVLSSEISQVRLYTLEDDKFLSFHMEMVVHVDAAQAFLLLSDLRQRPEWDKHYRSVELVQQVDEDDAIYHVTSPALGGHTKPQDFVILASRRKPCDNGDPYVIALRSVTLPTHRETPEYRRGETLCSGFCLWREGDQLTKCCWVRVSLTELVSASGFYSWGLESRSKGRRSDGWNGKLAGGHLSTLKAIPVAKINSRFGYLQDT
UniProt P09110: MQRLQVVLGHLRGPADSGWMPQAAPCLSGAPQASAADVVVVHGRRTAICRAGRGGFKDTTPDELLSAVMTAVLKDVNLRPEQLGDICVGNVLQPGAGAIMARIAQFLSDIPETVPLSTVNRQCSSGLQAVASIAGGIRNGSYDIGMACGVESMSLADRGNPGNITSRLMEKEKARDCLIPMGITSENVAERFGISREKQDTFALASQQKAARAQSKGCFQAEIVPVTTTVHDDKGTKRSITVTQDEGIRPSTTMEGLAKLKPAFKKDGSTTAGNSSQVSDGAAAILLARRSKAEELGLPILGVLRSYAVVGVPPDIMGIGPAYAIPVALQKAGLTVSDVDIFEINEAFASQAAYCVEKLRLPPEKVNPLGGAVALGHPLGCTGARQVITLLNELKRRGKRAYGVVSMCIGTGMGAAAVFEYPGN
UniProt Q2M2I8: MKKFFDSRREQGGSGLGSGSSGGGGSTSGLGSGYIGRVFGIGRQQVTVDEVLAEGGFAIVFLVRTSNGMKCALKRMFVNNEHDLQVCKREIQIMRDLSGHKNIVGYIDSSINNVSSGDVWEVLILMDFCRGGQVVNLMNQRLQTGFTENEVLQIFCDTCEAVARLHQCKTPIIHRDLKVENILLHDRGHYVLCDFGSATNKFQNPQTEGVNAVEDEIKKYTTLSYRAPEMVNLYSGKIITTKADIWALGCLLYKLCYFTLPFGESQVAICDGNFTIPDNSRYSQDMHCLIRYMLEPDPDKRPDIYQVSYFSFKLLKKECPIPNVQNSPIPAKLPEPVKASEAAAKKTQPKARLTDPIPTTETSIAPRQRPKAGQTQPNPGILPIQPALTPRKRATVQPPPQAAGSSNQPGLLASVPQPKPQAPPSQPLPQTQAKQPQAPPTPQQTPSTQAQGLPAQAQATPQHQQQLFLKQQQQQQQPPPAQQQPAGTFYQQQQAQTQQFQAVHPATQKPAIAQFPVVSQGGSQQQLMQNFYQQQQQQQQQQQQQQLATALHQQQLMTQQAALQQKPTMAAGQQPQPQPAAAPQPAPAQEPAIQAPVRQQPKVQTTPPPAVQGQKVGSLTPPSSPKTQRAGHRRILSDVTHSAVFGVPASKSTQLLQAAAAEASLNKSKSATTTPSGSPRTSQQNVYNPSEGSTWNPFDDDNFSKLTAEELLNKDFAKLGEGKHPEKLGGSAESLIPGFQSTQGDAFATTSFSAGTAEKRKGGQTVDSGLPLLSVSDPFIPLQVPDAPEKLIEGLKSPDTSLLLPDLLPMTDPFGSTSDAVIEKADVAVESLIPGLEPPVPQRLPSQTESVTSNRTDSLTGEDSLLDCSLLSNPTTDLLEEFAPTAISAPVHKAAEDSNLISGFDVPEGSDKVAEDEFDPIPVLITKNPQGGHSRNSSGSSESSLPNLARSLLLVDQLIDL
UniProt P42765: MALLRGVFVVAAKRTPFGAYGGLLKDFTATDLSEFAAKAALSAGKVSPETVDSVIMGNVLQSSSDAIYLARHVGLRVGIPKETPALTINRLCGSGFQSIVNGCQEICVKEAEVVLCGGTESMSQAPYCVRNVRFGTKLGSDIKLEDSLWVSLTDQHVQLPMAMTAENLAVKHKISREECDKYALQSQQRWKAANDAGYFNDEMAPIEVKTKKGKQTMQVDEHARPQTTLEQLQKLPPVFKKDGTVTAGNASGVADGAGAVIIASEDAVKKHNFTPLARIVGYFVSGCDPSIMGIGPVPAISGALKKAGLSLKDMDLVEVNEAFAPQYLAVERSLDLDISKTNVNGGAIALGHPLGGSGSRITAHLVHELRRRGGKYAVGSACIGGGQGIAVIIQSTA
UniProt Q9NUJ1: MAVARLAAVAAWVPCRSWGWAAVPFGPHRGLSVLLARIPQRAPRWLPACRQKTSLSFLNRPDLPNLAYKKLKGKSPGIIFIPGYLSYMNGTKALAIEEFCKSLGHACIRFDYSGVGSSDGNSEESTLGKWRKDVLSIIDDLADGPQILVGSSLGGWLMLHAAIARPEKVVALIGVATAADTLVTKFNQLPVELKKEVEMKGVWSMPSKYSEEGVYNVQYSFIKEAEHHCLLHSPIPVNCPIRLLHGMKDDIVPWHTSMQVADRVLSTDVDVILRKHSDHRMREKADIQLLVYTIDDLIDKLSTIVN

Compound: Cc1cc(ccc1-c1ccccc1)C(=O)N1CCCN(CC1)C(=O)CCl [compound 10]
Assay: probe-labelled cysteine peptide fold change vs DMSO (competition) (log2 fold change); higher = less target engagement (more negative = stronger competition)
Details: THP-1, incubation time: 4 h
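Note: competitive profiling in live THP-1 cells: cysteine peptides tagged with an iodoacetamide desthiobiotin (IA-DTB) probe, intensity after compound treatment relative to DMSO-treated cells.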

Row | Target | probe-labelled cysteine peptide fold change (10 µM) | probe-labelled cysteine peptide fold change (50 µM)
1 | A2ML1_A8K2U0_694_PVDCSHR (UniProt A8K2U0) | -0.00566 | 0.00578
2 | ABCF1_Q8NE71_655_ICIVGPNGVGK (UniProt Q8NE71) | 0.0275 | 0.233
3 | ABHD16A_O95870_205_KLPCQITSYLVAHTLGR (UniProt O95870) | -1.03 | -0.401
4 | ABR_Q12979_330_HVFLFTDVLLCAK (UniProt Q12979) | -0.0719 | 0.196
5 | ACADS_P16219_246_GSSTANLIFEDCR (UniProt P16219) | -0.0747 | 0.0499
6 | ABHD12_Q8N2K0_52_CAADAGMK (UniProt Q8N2K0) | -0.21 | -0.693
7 | AARS_P49588_184_DNFWEMGDTGPCGPCSEIHYDR (UniProt P49588) | -0.0131 | 0.0157
8 | ACIN1_Q9UKV3_1223_AAPCIYWLPLTDSQIVQK (UniProt Q9UKV3) | 0.264 | 0.0755
9 | AAAS_Q9NRG9_279_VWDVSTETCVPLPWFR (UniProt Q9NRG9) | 0.363 | 0.199
10 | ACIN1_Q9UKV3_1052_SHCFVTYSTVEEAVATR (UniProt Q9UKV3) | -0.047 | 0.0746
11 | ACAD9_Q9H845_179_LASGEHIAAFCLTEPASGSDAASIR (UniProt Q9H845) | 0.166 | 0.316
12 | ACOT8_O14734_302_QDGVLAVTCAQEGVIR (UniProt O14734) | -0.00349 | 0.0849
13 | ABCF3_Q9NUQ8_522_ICVVGENGAGK (UniProt Q9NUQ8) | -0.14 | 0.0306
14 | ABHD16A_O95870_544_HLHNFEATHCTPLPAQNFQMPWHL (UniProt O95870) | -0.497 | -1.15
15 | AASDHPPT_Q9NRN7_23_WAFSCGTWLPSR (UniProt Q9NRN7) | 0.0877 | -0.0132
16 | ACAT2_Q9BWD1_148+158_IGEMPLTDSILCDGLTDAFHNCHMGITAENVAK (UniProt Q9BWD1) | -0.165 | -0.295
17 | ACOT11_Q8WXI4_529_RGETLCSGFCLWR (UniProt Q8WXI4) | 0.184 | -0.233
18 | ACAA1_P09110_148_NGSYDIGMACGVESMSLADR (UniProt P09110) | -0.314 | -0.432
19 | AAK1_Q2M2I8_159_LQTGFTENEVLQIFCDTCEAVAR (UniProt Q2M2I8) | -0.00759 | 0.0488
20 | ACAA2_P42765_116_EAEVVLCGGTESMSQAPYCVR (UniProt P42765) | -0.0523 | 0.00696
21 | ACADSB_P45954_385_CIEWMGGVGYTK (UniProt P45954) | 0.00276 | 0.31

Row | Target | probe-labelled cysteine peptide fold change (10 µM) | probe-labelled cysteine peptide fold change (50 µM)
22 | ACBD3_Q9H3P7_487_DCHEEVYAGSHQYPGR (UniProt Q9H3P7) | -0.106 | 0.0813
23 | ACAP2_Q15057_53_AFCVANK (UniProt Q15057) | -0.11 | -0.362
24 | ACAA1_P09110_49_RTAICR (UniProt P09110) | -0.0652 | 0.0647
25 | ABCE1_P61221_38_LCIEVTPQSK (UniProt P61221) | -0.185 | -0.149
26 | ABCE1_P61221_231_FACAVVCIQK (UniProt P61221) | 0.178 | 0.254
27 | ACAA1_P09110_177_DCLIPMGITSENVAER (UniProt P09110) | -0.246 | -0.141
28 | AARS2_Q5JTZ9_596+609_AQVCGGFILHEAVAPECLR (UniProt Q5JTZ9) | -0.256 | -0.572
29 | ACACA_Q13085_1297_TDCDIEDDRLAAMFR (UniProt Q13085) | 0.00907 | -0.423
30 | ACO2_Q99798_332_DHLVPDPGCHYDQLIEINLSELKPHINGPFTPDLAHPVAEVGK (UniProt Q99798) | -0.228 | 0.153
31 | AAK1_Q2M2I8_250_ADIWALGCLLYK (UniProt Q2M2I8) | 0.186 | 0.432
32 | ABRAXAS2_Q15018_237_VVESCQAEVNK (UniProt Q15018) | -0.0514 | 0.106
33 | AAR2_Q9Y312_156_QICAFSDVLPVLSMK (UniProt Q9Y312) | -0.0329 | -0.26
34 | ACOT11_Q8WXI4_498_RKPCDNGDPYVIALR (UniProt Q8WXI4) | -0.0607 | -0.24
35 | ACOT2_P49753_401_SEFYANEACK (UniProt P49753) | -0.205 | -0.305
36 | ACOT7_O00154_288_GCVITISGR (UniProt O00154) | 0.018 | 0.201
37 | AARS_P49588_525_MFVEEVSTGQECGVVLDK (UniProt P49588) | -0.239 | 0.000348
38 | ACIN1_Q9UKV3_546_GITEECLK (UniProt Q9UKV3) | -0.137 | -0.182
39 | ABHD17B_Q5VST6_68_DAIECFMTR (UniProt Q5VST6) | 0.112 | 0.0179
40 | ACAA2_P42765_287_IVGYFVSGCDPSIMGIGPVPAISGALK (UniProt P42765) | 0.0345 | 0.0187
41 | ABHD10_Q9NUJ1_229_EAEHHCLLHSPIPVNCPIR (UniProt Q9NUJ1) | 0.0491 | 0.0493
